Test results as given in PubChem BioAssay AID435003 (Sanford-Burnham Center for Chemical Genomics, 2010).
This is a selection; strong and weak results do not stand in their true shares. Calls of active or inactive are those of the source. No stated cut-off is given here; in the data, active means inhibition above about 50%; inactive means the rest.

Experiment: inhibitors of induced NF-kB luciferase reporter, primary screen, TCR NF-kB activation inhibitor project, cell-based, luminescence, uHTS (AID 435003)
Settings: at 4 µM, hits give high values

Row | Compound | inhibition
1 | CN[C@H]1C[C@H]2O[C@@](C)([C@H]1OC)n1c3ccccc3c3c4c(c5c6ccccc6n2c5c31)C(=O)NC4 | active: 101%
